Experimental data published in the supplement of paper PMC10849652.
This is one part of the list. Residues, ends and D or L forms follow the SMILES beside them. *: point of attachment. Cbz = O=C(OCc1ccccc1)*

Sequences of proteins named here, by UniProt entry; tags and fusion partners are left off. A change or cut given only in a name is not applied to a line headed by its entry.
UniProt Q12972: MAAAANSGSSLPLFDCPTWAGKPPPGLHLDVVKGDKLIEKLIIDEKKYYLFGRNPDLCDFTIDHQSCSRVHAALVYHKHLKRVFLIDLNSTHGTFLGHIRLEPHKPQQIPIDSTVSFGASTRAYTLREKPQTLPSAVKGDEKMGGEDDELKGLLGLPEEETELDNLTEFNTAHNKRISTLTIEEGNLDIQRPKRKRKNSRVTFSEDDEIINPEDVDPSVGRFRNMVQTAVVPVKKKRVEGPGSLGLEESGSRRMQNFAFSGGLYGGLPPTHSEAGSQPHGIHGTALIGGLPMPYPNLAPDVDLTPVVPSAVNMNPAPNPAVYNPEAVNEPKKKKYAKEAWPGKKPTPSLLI
UniProt P41236: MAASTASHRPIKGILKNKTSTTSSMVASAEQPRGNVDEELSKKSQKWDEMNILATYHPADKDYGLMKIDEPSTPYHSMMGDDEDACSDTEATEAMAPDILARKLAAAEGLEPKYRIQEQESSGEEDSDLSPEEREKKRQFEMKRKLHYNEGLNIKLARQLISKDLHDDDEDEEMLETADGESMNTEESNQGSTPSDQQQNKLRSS
UniProt P30153, whole entry, looked up: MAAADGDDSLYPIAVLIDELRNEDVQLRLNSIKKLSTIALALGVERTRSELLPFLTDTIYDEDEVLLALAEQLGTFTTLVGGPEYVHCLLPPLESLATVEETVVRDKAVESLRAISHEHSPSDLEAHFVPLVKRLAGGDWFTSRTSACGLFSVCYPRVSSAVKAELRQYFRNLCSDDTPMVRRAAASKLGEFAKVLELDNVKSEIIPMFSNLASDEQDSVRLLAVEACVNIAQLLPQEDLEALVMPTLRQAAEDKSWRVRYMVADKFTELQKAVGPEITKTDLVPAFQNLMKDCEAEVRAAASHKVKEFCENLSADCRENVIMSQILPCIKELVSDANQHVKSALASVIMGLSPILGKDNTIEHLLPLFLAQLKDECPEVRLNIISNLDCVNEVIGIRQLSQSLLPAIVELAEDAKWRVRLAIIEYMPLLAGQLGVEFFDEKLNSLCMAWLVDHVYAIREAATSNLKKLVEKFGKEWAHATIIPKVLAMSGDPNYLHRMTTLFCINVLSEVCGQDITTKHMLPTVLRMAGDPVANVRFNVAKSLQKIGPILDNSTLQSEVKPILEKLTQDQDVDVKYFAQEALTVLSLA
UniProt P36873, whole entry, looked up: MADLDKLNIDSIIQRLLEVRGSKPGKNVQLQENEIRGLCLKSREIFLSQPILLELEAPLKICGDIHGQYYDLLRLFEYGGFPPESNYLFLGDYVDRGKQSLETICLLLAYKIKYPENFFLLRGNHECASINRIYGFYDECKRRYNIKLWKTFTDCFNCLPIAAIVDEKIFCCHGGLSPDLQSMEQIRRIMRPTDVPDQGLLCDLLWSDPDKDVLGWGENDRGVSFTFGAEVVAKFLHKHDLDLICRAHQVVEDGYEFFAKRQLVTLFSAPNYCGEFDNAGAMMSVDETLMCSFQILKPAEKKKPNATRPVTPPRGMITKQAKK
UniProt P62140, whole entry, looked up: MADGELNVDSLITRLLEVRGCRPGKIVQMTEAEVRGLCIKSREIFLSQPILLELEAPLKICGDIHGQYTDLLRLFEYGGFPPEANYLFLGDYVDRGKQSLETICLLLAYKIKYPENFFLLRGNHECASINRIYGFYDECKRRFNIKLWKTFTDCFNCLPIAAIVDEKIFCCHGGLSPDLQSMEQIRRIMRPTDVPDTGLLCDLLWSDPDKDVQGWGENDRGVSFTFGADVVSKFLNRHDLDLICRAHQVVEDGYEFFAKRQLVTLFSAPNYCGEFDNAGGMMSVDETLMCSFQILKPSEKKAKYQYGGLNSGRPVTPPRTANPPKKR
UniProt Q99873, whole entry, looked up: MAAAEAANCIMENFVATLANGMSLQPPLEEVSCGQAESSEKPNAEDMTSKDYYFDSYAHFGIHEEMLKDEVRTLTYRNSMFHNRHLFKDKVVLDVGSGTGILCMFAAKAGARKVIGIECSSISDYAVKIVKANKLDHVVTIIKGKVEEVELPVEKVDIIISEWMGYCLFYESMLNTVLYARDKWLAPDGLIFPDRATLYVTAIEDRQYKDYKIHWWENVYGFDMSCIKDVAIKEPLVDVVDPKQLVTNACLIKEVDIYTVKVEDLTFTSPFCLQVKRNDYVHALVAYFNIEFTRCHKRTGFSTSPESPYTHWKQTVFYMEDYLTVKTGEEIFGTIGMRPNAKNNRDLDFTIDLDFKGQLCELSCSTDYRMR
UniProt P78527, whole entry, looked up: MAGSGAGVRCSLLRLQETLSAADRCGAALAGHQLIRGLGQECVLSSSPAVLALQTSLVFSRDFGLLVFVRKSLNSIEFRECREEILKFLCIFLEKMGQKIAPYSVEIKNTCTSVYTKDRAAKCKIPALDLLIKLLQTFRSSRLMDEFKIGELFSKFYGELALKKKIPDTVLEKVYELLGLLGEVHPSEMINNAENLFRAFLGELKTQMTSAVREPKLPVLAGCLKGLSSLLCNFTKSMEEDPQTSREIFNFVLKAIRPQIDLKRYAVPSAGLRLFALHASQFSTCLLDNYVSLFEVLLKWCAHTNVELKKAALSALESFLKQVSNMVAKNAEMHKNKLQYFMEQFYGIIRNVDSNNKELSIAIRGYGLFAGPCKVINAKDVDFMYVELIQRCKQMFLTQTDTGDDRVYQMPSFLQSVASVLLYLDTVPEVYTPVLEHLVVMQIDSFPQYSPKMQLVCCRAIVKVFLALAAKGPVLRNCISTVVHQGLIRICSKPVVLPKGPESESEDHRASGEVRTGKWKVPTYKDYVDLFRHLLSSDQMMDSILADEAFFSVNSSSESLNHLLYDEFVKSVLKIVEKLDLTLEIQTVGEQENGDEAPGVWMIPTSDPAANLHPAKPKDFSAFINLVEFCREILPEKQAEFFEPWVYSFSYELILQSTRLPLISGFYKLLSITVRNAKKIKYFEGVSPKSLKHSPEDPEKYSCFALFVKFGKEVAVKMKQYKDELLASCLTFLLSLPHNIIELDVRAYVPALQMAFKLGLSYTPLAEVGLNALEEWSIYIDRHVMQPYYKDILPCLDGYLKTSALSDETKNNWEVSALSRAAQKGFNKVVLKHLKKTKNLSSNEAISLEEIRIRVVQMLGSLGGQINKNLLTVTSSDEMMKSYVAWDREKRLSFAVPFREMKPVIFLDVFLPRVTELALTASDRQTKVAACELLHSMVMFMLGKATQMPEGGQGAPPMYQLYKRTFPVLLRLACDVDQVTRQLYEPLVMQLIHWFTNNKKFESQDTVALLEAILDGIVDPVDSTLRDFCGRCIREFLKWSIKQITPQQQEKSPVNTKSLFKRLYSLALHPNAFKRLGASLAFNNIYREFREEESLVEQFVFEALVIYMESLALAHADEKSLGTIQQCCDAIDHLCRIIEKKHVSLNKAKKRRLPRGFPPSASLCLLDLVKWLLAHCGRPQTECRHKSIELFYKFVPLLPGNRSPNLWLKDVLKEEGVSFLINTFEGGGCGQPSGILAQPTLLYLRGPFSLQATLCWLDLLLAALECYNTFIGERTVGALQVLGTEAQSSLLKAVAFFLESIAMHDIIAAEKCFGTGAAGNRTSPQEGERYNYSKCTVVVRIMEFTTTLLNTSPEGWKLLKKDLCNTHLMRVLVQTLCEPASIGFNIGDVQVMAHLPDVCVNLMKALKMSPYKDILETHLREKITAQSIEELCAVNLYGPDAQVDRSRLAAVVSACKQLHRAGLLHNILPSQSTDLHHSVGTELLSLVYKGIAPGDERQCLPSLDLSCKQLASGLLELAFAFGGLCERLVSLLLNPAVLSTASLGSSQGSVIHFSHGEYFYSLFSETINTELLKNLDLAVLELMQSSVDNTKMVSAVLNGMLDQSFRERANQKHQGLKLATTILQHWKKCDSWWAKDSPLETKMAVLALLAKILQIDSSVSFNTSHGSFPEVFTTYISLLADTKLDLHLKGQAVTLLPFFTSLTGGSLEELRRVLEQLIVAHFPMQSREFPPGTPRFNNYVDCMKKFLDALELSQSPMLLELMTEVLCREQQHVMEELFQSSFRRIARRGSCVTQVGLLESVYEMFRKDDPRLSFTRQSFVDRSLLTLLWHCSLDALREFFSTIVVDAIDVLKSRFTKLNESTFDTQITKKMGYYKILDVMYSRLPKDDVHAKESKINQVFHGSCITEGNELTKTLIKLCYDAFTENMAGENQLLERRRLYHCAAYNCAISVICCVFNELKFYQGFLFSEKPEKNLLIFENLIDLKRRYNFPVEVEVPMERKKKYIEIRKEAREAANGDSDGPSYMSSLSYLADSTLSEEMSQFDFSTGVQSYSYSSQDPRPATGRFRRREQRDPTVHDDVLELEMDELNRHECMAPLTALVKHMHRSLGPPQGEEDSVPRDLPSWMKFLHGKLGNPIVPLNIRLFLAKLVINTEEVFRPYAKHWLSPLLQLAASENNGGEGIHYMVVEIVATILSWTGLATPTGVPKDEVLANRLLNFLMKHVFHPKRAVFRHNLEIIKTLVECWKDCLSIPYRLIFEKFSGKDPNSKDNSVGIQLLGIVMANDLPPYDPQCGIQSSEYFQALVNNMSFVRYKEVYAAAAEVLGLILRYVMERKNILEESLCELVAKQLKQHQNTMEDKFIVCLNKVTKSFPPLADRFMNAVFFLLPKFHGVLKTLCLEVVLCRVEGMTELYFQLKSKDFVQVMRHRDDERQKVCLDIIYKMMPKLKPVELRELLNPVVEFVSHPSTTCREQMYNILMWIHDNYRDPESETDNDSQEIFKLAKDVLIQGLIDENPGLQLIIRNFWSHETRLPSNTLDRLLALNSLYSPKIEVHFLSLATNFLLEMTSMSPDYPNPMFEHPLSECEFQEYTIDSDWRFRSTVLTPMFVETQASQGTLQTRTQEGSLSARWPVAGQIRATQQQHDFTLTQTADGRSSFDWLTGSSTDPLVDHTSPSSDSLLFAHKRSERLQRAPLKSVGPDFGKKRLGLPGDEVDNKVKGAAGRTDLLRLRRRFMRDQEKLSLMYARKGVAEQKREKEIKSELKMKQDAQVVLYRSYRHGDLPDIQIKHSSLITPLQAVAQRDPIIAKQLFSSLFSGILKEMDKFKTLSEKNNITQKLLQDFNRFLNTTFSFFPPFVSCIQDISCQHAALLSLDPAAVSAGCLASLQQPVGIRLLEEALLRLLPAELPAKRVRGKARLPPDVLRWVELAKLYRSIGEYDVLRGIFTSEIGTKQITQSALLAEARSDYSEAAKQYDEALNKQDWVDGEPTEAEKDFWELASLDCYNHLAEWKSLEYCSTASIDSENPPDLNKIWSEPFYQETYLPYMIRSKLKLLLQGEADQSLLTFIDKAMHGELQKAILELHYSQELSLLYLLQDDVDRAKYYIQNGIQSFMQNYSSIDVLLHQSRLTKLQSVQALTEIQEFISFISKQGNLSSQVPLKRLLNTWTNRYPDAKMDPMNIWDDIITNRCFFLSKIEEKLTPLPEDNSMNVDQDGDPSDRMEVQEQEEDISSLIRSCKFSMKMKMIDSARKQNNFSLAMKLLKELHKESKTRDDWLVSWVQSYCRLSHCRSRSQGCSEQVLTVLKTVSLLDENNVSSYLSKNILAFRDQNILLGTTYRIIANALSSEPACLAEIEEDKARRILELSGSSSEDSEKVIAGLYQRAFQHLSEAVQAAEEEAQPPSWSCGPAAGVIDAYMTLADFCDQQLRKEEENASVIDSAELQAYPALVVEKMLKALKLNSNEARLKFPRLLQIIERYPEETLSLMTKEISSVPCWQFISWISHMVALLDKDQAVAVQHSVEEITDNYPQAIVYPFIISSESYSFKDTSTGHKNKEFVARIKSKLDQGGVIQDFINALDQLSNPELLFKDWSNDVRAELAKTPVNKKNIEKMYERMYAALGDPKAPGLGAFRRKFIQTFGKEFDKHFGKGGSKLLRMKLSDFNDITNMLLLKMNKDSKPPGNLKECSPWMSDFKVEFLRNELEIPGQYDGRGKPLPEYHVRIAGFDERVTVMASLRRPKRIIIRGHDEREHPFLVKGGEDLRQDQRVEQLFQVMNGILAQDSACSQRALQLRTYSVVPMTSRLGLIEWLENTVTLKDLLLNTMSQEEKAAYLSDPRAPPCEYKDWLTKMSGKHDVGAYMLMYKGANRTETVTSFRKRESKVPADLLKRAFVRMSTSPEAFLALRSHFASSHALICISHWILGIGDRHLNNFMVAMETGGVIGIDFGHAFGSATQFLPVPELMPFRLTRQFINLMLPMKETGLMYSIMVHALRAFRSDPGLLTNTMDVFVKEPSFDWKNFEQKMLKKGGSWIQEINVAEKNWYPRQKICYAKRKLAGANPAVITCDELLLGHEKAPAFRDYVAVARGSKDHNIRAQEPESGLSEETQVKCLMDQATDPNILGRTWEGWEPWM
UniProt P32119: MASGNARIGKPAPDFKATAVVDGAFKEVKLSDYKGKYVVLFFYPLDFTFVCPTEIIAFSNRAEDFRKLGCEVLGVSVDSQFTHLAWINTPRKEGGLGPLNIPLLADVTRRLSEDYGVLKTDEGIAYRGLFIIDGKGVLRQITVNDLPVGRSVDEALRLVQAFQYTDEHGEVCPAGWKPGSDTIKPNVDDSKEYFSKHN

Experiments:
Experiment in all cases: log2 fold change, soluble protein after heating vs DMSO (PISA); higher = thermal stabilisation; K562 cells, 10 uM, 30 min; active = over 0.2 and 3.5 SD of the protein, either way, in both replicates (recomputed)
erlotinib = compound: C#Cc1cccc(Nc2ncnc3cc(OCCOC)c(OCCOC)cc23)c1 [erlotinib]
Summary of the method: (§1)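 K562 cells at 2×10^6 cells/mL were given 10 μM compound for 30 min. Aliquots then went through 3 min of heating across 48°C-58°C, were pooled, and were extracted in PBS with 0.5% NP-40 at 4°C, and the supernatant after 21,000xg for 90 min was quantified by TMTpro 16plex LC-MS/MS with channel sums equalised. Thermal stability relative to control samples, from duplicates, is given as log2 fold change.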

[1] = compound: C/C(=N\NC(=O)C1=CC(=CC=C1)S(=O)(=O)N2CCOCC2)/C3=C(C=CC(=C3)Cl)O
Summary of the method: as §1

[2] = compound: C1=CC(=C(C=C1Cl)C2=NC3=NC=CN=C3C(=N2)NC4=CC=NC=C4)F
Summary of the method: as §1

[3] = compound: C1=CC(=CC=C1C2=NC3=C(N2)C=C(C=C3)C(=O)N)OC4=CC=C(C=C4)Cl
Summary of the method: as §1

[4] = compound: C1=CC2=C(C=CC(=C2)/C=C\3/C(=O)NC(=NCC4=CC=CS4)S3)N=C1
Summary of the method: as §1

[5] = compound: C1=CC2=NC=CN=C2C=C1/C=C/3\C(=O)NC(=O)S3
Summary of the method: as §1

[6] = compound: C1=CC=C(C=C1)C2=NC(=C(N2)C3=CC=NC=C3)C4=CC(=C(C=C4)Cl)O
Summary of the method: as §1

[7] = compound: C1=CC=C2C(=C1)C3=NNC4=CC=CC(=C43)C2=O
Summary of the method: as §1

[8] = compound: C1CCN(C1)C(=O)NC2=CC=CC(=C2)NC3=NC=C(C(=N3)NCCC4=CN=CN4)Br
Summary of the method: as §1

[9] = compound: C1CN(CCC1(CC2=CC=C(C=C2)Cl)N)C3=NC=NC4=C3C=CN4
Summary of the method: as §1

IRAK-1-4 Inhibitor I = compound: C1COCCN1CCN2C3=CC=CC=C3N=C2NC(=O)C4=CC(=CC=C4)[N+](=O)[O-] [IRAK-1-4 Inhibitor I]
Summary of the method: as §1

ibrutinib = compound: C=CC(=O)N1CCC[C@@H](n2nc(-c3ccc(Oc4ccccc4)cc3)c3c(N)ncnc32)C1 [ibrutinib]
Summary of the method: as §1

[10] = compound: CC(=O)c1cnc2ccc(-c3cc(Cl)c(O)c(Cl)c3)nc2c1N[C@H]1CC[C@H](CN(C)C)CC1
Summary of the method: as §1

ralimetinib = compound: CC(C)(C)Cn1c(N)nc2ccc(-c3[nH]c(C(C)(C)C)nc3-c3ccc(F)cc3)nc21 [ralimetinib]
Summary of the method: as §1

[11] = compound: CC(C)(O)CC(=O)NCCn1ccc2ncnc(Nc3ccc(Oc4cccc(C(F)(F)F)c4)c(Cl)c3)c21
Summary of the method: as §1

[12] = compound: CC(C)C1=C2N=C(C=C(N2N=C1)NCC3=CC=CC=C3)NCCCCCCN
Summary of the method: as §1

[13] = compound: CC(C)C[C@@H](C=O)NC(=O)[C@H](CC(C)C)NC(=O)[C@H](CC(C)C)NC(=O)OCc1ccccc1
Summary of the method: as §1

pinometostat = compound: CC(C)N(C[C@H]1O[C@@H](n2cnc3c(N)ncnc32)[C@H](O)[C@@H]1O)[C@H]1C[C@@H](CCc2nc3cc(C(C)(C)C)ccc3[nH]2)C1 [pinometostat]
Summary of the method: as §1

[14] = compound: CC1=C(C(CC(=O)N1)C2=CC=C(C=C2)C(F)(F)F)C(=O)NC3=C(C=C4C(=C3)C=NN4)F
Summary of the method: as §1

[15] = compound: CC1=C(C2=C(C=C1)C(=O)C3=CC=CC=C3N2CCCN)C
Summary of the method: as §1

Measured: log2 fold change

PPP1R8 (UniProt Q12972)
inactive: erlotinib -0.052 | [1] 0.039 | [2] 0.148 | [3] 0.055 | [4] -0.101 | [5] 0.048 | [6] -0.017 | [7] 0.018 | [8] -0.045 | [9] 0.071 | IRAK-1-4 Inhibitor I -0.044 | ibrutinib 0.005 | [10] -0.044 | ralimetinib -0.086 | [11] -0.051 | [12] 0.034 | [13] 0.039 | pinometostat -0.017 | [14] 0.005 | [15] 0.041

PRAME (UniProt P78395)
inactive: erlotinib 0.047 | [1] -0.047 | [2] -0.226 | [3] 0.036 | [4] 0.003 | [5] 0.008 | [6] -0.039 | [7] -0.064 | [8] -0.061 | [9] -0.031 | IRAK-1-4 Inhibitor I -0.019 | ibrutinib -0.026 | [10] -0.038 | ralimetinib 0.082 | [11] 0 | [12] -0.013 | [13] 0.231 | pinometostat 0.089 | [14] 0 | [15] -0.084

PRDX5 (UniProt P30044)
inactive: erlotinib -0.022 | [1] 0.021 | [2] 0.074 | [3] -0.01 | [4] 0.029 | [5] 0.012 | [6] -0.04 | [7] -0.02 | [8] 0.015 | [9] 0.038 | IRAK-1-4 Inhibitor I 0.03 | ibrutinib 0.006 | [10] -0.003 | ralimetinib -0.083 | [11] 0.015 | [12] 0.044 | [13] -0.017 | pinometostat -0.014 | [14] -0.013 | [15] -0.001

PPP1R2 (UniProt P41236)
inactive: erlotinib -0.001 | [1] -0.002 | [2] -0.02 | [3] 0 | [4] -0.023 | [5] -0.006 | [6] -0.049 | [7] -0.052 | [8] 0.022 | [9] 0.041 | IRAK-1-4 Inhibitor I 0.049 | ibrutinib 0.005 | [10] 0.012 | ralimetinib -0.083 | [11] 0.172 | [12] 0.049 | [13] -0.023 | pinometostat -0.038 | [14] 0.032 | [15] -0.04

PPP2R1A (UniProt P30153)
inactive: erlotinib 0.006 | [1] 0.027 | [2] 0.068 | [3] 0.014 | [4] 0.003 | [5] 0.02 | [6] 0.023 | [7] 0.009 | [8] 0.015 | [9] -0.001 | IRAK-1-4 Inhibitor I 0.027 | ibrutinib -0.011 | [10] 0.008 | ralimetinib -0.046 | [11] -0.033 | [12] -0.02 | [13] -0.031 | pinometostat -0.03 | [14] -0.021 | [15] 0.02

PPP1CC isoform 2 (UniProt P36873)
inactive: erlotinib 0.003 | [1] 0.033 | [2] -0.003 | [3] -0.002 | [4] 0.004 | [5] 0.031 | [6] 0.022 | [7] -0.046 | [8] -0.016 | [9] -0.034 | IRAK-1-4 Inhibitor I 0.023 | ibrutinib 0.033 | [10] 0.006 | ralimetinib -0.024 | [11] 0.014 | [12] 0.03 | [13] -0.025 | pinometostat -0.009 | [14] 0.18 | [15] 0.009

PPP1CB (UniProt P62140)
inactive: erlotinib 0.059 | [1] 0.05 | [2] -0.025 | [3] 0.034 | [4] -0.021 | [5] 0.027 | [6] -0.021 | [7] -0.005 | [8] -0.024 | [9] 0 | IRAK-1-4 Inhibitor I -0.008 | ibrutinib -0.028 | [10] -0.072 | ralimetinib -0.053 | [11] -0.02 | [12] 0.046 | [13] -0.01 | pinometostat -0.027 | [14] -0.037 | [15] -0.044

PPP4C (UniProt P60510)
inactive: erlotinib 0.048 | [1] -0.027 | [2] 0.006 | [3] 0.014 | [4] 0.022 | [5] 0.031 | [6] 0.059 | [7] 0.007 | [8] -0.02 | [9] 0.047 | IRAK-1-4 Inhibitor I 0.057 | ibrutinib 0.023 | [10] -0.005 | ralimetinib -0.044 | [11] 0.007 | [12] 0.039 | [13] -0.029 | pinometostat 0.027 | [14] 0.078 | [15] -0.006

PPP1R14B (UniProt Q96C90)
inactive: erlotinib 0.027 | [1] 0.026 | [2] 0.046 | [3] -0.02 | [4] -0.263 | [5] -0.076 | [6] 0.062 | [7] 0.18 | [8] -0.261 | [9] 0.038 | IRAK-1-4 Inhibitor I 0.022 | ibrutinib -0.144 | [10] 0.036 | ralimetinib 0.012 | [11] 0.194 | [12] 0.035 | [13] -0.149 | pinometostat -0.161 | [14] 0.017 | [15] -0.095

Reprinted at random: two records from the list, in no set order.
PPP1CC isoform 2 (UniProt P36873)
inactive: erlotinib 0.003 | [1] 0.033 | [2] -0.003 | [3] -0.002 | [4] 0.004 | [5] 0.031 | [6] 0.022 | [7] -0.046 | [8] -0.016 | [9] -0.034 | IRAK-1-4 Inhibitor I 0.023 | ibrutinib 0.033 | [10] 0.006 | ralimetinib -0.024 | [11] 0.014 | [12] 0.03 | [13] -0.025 | pinometostat -0.009 | [14] 0.18 | [15] 0.009

PPP1CB (UniProt P62140)
inactive: erlotinib 0.059 | [1] 0.05 | [2] -0.025 | [3] 0.034 | [4] -0.021 | [5] 0.027 | [6] -0.021 | [7] -0.005 | [8] -0.024 | [9] 0 | IRAK-1-4 Inhibitor I -0.008 | ibrutinib -0.028 | [10] -0.072 | ralimetinib -0.053 | [11] -0.02 | [12] 0.046 | [13] -0.01 | pinometostat -0.027 | [14] -0.037 | [15] -0.044

Further records:

PRMT1 (UniProt Q99873)
inactive: erlotinib -0.028 | [1] 0.06 | [2] 0.087 | [3] -0.021 | [4] 0.016 | [5] -0.002 | [6] 0.06 | [7] -0.004 | [8] 0.033 | [9] 0.024 | IRAK-1-4 Inhibitor I 0.055 | ibrutinib 0.009 | [10] 0.02 | ralimetinib -0.014 | [11] -0.083 | [12] 0.045 | [13] -0.033 | pinometostat 0 | [14] -0.001 | [15] 0.064

PRPF8 (UniProt Q6P2Q9)
inactive: erlotinib -0.099 | [1] -0.012 | [2] -0.123 | [3] 0.029 | [4] -0.015 | [5] 0.046 | [6] -0.091 | [7] -0.028 | [8] -0.005 | [9] -0.04 | IRAK-1-4 Inhibitor I 0.018 | ibrutinib -0.001 | [10] 0.037 | ralimetinib 0.022 | [11] 0.023 | [12] 0.123 | [13] 0.071 | pinometostat 0.111 | [14] -0.043 | [15] 0.012

PRRC2B (UniProt Q5JSZ5)
inactive: erlotinib 0.078 | [1] -0.057 | [2] 0.014 | [3] -0.042 | [4] 0.118 | [5] -0.033 | [6] -0.052 | [7] 0.094 | [8] -0.004 | [9] -0.007 | IRAK-1-4 Inhibitor I 0.017 | ibrutinib -0.037 | [10] -0.063 | ralimetinib 0.036 | [11] 0.035 | [12] -0.037 | [13] 0.066 | pinometostat -0.037 | [14] -0.038 | [15] 0.062

PRKDC (UniProt P78527)
inactive: erlotinib -0.038 | [1] 0.086 | [2] 0.08 | [3] -0.012 | [4] 0.025 | [5] 0.001 | [6] 0.029 | [7] 0.006 | [8] -0.001 | [9] 0.018 | IRAK-1-4 Inhibitor I 0.011 | ibrutinib -0.038 | [10] -0.082 | ralimetinib -0.028 | [11] -0.064 | [12] 0.01 | [13] -0.022 | pinometostat -0.018 | [14] -0.004 | [15] 0.113

PPP2R1B isoform 2 (UniProt P30154)
inactive: erlotinib 0.028 | [1] 0 | [2] 0.057 | [3] -0.004 | [4] -0.023 | [5] 0.089 | [6] 0.026 | [7] 0.017 | [8] 0.021 | [9] -0.012 | IRAK-1-4 Inhibitor I -0.023 | ibrutinib -0.076 | [10] 0.057 | ralimetinib 0.026 | [11] -0.083 | [12] -0.069 | [13] -0.056 | pinometostat -0.02 | [14] 0.006 | [15] -0.006

PRDX2 (UniProt P32119)
inactive: erlotinib 0.014 | [1] -0.037 | [2] 0.024 | [3] -0.033 | [4] 0.011 | [5] -0.015 | [6] -0.011 | [7] 0.014 | [8] 0.033 | [9] 0.033 | IRAK-1-4 Inhibitor I 0.049 | ibrutinib -0.008 | [10] -0.064 | ralimetinib -0.016 | [11] 0.017 | [12] 0.01 | [13] -0.025 | pinometostat -0.041 | [14] 0.029 | [15] 0.017

PPP4R3A (UniProt Q6IN85)
inactive: erlotinib -0.015 | [1] 0.032 | [2] -0.025 | [3] 0.028 | [4] 0.046 | [5] 0.043 | [6] -0.073 | [7] 0.004 | [8] 0.014 | [9] 0.021 | IRAK-1-4 Inhibitor I 0.016 | ibrutinib -0.042 | [10] -0.023 | ralimetinib -0.129 | [11] 0.075 | [12] -0.032 | [13] 0.025 | pinometostat -0.017 | [14] -0.033 | [15] -0.066
